## Library screen at single concentrations

Protein sequences, listed by entry. Tags and fused reporters are not part of them. Residues count along the entry.
UniProt I6X8D2, whole entry: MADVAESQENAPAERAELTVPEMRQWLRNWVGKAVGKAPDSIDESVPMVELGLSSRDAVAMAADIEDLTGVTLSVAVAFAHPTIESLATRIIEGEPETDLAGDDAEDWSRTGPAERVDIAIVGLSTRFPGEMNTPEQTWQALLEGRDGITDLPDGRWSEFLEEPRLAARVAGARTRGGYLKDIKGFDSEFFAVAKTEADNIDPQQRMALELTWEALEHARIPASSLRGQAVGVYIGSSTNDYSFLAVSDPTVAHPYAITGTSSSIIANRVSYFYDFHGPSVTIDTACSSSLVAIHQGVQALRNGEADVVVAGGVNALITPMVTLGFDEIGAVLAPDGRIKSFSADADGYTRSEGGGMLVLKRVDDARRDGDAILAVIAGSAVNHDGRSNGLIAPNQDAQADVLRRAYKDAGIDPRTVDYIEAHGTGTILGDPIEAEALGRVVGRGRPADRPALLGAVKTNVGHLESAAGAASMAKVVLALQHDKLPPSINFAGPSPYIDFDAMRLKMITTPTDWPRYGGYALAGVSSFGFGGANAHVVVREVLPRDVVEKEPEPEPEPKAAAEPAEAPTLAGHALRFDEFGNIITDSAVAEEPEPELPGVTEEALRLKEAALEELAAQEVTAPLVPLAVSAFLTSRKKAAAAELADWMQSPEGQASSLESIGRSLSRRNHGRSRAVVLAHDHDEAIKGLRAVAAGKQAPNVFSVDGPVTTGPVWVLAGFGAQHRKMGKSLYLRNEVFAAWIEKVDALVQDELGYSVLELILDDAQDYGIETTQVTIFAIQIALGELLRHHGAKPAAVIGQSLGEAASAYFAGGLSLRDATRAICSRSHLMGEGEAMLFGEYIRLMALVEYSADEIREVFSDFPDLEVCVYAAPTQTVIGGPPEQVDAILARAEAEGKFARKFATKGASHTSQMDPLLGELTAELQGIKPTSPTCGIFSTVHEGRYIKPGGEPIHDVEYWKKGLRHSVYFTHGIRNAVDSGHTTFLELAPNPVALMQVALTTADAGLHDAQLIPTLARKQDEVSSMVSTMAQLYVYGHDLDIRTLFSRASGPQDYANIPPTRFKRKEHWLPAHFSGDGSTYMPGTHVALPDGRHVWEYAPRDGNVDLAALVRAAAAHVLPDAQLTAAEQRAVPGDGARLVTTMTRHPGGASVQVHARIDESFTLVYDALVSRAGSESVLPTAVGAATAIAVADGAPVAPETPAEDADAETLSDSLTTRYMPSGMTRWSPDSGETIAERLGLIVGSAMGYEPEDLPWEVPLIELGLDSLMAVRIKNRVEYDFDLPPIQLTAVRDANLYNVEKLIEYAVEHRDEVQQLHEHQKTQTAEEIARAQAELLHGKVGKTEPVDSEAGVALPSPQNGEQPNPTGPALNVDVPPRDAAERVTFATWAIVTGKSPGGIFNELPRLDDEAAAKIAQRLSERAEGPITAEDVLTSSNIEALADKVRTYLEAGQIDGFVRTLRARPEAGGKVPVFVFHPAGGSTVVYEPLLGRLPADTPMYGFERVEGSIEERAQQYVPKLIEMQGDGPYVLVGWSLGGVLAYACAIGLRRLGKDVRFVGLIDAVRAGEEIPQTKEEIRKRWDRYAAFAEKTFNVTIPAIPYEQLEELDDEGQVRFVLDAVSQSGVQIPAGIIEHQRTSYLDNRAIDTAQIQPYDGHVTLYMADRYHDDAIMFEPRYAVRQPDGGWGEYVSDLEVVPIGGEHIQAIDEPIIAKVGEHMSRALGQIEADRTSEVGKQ
UniProt P9WNZ1, whole entry: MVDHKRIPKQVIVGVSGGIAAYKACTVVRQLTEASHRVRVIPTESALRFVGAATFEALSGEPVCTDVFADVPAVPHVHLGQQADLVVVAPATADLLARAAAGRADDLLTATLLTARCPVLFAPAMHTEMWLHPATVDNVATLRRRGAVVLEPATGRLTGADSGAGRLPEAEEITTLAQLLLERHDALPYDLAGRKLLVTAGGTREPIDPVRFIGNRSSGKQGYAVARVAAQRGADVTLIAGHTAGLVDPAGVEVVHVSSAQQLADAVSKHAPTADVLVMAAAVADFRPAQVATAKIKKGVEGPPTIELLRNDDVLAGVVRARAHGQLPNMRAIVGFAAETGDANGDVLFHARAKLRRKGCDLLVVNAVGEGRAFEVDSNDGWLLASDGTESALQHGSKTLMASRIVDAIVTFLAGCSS
UniProt P9WFT3, whole entry: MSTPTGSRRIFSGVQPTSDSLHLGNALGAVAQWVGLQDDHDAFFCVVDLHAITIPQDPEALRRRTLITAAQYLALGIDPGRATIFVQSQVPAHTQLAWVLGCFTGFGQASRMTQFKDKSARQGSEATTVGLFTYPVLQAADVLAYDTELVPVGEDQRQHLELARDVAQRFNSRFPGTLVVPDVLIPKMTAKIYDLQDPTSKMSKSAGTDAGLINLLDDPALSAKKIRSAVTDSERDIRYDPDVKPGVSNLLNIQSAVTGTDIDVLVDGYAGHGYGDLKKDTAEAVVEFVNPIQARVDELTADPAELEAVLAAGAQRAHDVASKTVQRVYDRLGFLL
UniProt A4I591, 1-473: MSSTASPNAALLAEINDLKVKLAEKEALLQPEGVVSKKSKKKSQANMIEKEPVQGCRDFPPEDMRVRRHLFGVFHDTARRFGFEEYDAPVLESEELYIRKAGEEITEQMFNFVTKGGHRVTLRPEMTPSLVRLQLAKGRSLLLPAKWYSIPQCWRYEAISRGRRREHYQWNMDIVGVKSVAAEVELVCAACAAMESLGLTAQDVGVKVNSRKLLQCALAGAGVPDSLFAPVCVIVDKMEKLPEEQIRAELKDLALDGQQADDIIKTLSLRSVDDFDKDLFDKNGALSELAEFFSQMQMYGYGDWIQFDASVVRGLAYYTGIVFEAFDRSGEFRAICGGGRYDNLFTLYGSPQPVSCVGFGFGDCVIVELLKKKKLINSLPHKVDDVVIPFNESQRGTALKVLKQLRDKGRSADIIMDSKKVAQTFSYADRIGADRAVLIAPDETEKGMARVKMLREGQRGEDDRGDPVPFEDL
UniProt Q4DA54, 1-478: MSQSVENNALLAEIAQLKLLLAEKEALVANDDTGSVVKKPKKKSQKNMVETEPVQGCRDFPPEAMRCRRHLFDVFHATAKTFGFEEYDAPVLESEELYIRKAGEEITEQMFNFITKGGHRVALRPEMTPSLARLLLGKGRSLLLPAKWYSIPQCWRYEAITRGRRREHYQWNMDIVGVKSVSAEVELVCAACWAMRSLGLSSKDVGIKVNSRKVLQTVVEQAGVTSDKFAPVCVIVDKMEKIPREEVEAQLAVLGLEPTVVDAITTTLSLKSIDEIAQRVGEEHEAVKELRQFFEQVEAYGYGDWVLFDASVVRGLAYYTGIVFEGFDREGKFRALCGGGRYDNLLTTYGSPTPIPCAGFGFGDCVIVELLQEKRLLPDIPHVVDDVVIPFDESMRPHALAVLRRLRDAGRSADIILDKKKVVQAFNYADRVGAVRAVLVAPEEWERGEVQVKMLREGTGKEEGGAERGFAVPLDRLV

Source: ChEMBL document CHEMBL3988442, “University of Dundee, Small-Polar-MMV Screening Library” (2021).

A: 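Polyketide synthase Pks13, Mycobacterium tuberculosis (UniProt I6X8D2). Enzyme assay of the thioesterase domain of polyketide synthase 13; the read-out is not stated. Compounds at 30 µM. Higher reads as stronger inhibition (inferred from which compounds were picked for retests). Size under these conditions: about 67,000 compounds, about 300 of them at 50% or above in at least one test.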
B: 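Assay of Toxoplasma gondii numbers, read through their beta-galactosidase reporter with a colour substrate. Concentration: 10 µM. Higher reads as fewer parasites (inferred from which compounds were picked for retests). About 67,000 compounds were tested under these conditions; 0.38% (about 260) showed 50% or more at least once.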
C: 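Enzyme assay of CoaBC with a phosphate dye (Biomol Green) read at 650 nm. Target: Coenzyme A biosynthesis protein CoaBC, Mycobacterium tuberculosis (UniProt P9WNZ1). Tested at 30 µM. Higher reads as stronger inhibition, judged from the few compounds that gave an IC50. Most strong results did not repeat in a second test. Size under these conditions: about 67,000 compounds, about 40 of them at 50% or above in at least one test.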
D: 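Enzyme assay of tryptophanyl-tRNA synthetase; the read-out is not stated. Target: Tryptophan-tRNA ligase, Mycobacterium tuberculosis (UniProt P9WFT3). Compounds at 10 µM. Higher most likely means stronger inhibition; the record gives no direction and few retests gave an IC50. Of about 65,000 compounds tested this way, about 64 (0.098%) reached 50% or more in at least one test.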
E: 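Histidine-tRNA ligase, Leishmania infantum (UniProt A4I591). Enzyme assay of histidyl-tRNA synthetase; the read-out is not stated. Concentration: 30 µM. The record gives no direction; compounds that gave an IC50 in retests scored well above the rest, so higher reads as stronger inhibition. The assay is labelled LdHisRS but filed under L. infantum. Size under these conditions: about 69,000 compounds, about 410 of them at 50% or above in at least one test.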
F: 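Histidine-tRNA ligase, Trypanosoma cruzi CL Brener (UniProt Q4DA54). Enzyme assay of histidyl-tRNA synthetase; the read-out is not stated. Tested at 30 µM. Direction is inferred from retests: higher values go with stronger inhibition. Size under these conditions: about 69,000 compounds, about 31 of them at 50% or above in at least one test.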

The filed quantity is “Percent Effect” (%). The controls that fix the scale are not given in the record; negative values are as filed. Compounds were drawn at random from those tested, without regard to their results. A dash means the value is not listed here; it may have been measured.

- Cc1ccc(-n2nnc(CC(=O)N3CCN(C(C)C)CC3)c2C)cc1 | A: -28.95%; B: 12.25%; C: 5.33%; D: -1.614%; E: 17.65%; F: -0.4484%
- [H][C@]12CCCC(=O)N[C@@]1(C)CCCCN2C(=O)c1ccccn1 | B: 5.495%
- CS(=O)(=O)NCCC1CCCCN1C(=O)NCc1ccccn1 (stereo not drawn) | A: -17.25%; B: 1.542%; C: 1.607%; D: -0.9874%; E: 18.37%; F: 10.26%
- CNS(=O)(=O)Cc1ccc(CNC(=O)Nc2cccnc2)cc1 | A: -32.49%; C: 0.7712%; D: 2.124%; E: -3.371%; F: 0.7519%
- CCOCCN1Cc2ncn(C)c2C(COCC2CCOCC2)C1 (stereo not drawn) | A: 55.13%; C: 1.777%; D: -7.819%; E: 14.71%; F: 3.941%
- COCC(=O)N1CCC2(CC1)CN(c1ncccn1)CCO2 | A: -0.4192%; B: -1.771%; C: 3.09%; D: -5.989%; E: 13%; F: 8.163%
- CC(C)c1n[nH]c(C2CN(C(=O)c3csnn3)CCO2)n1 (stereo not drawn) | A: -3.736%; B: 5.336%; C: -0.5008%; D: 6.725%; E: 7.576%; F: -3.788%
- COCc1ncc(-c2nccn2CCS(C)(=O)=O)cn1 | A: 29.8%; B: 3.748%; C: 5.124%; D: -1.762%; E: -1049%; F: 8%
- COc1cccc(CCC(=O)N2CCC[C@@H](N)[C@@H]2c2ccccc2F)c1.Cl | B: -34.35%
- CN1CCN(c2ncnc3c2CCN(S(=O)(=O)C2CC2)CC3)CC1 | A: -3.166%; C: 3.094%; E: 1.98%; F: -2.513%
- CN(C(=O)Nc1ccccn1)C1CCCN(c2ccccc2)C1=O (stereo not drawn) | A: -10.99%; B: 5.513%; C: -3.64%; D: -9.2%; E: 8.621%; F: 5.759%
- Cl.Cl.Cn1cc(C(=O)NCc2cncc3c2CCNC3)cn1 | B: 17.75%
- O=C(O)C(F)(F)F.c1ccc(-c2ncc3c(n2)C2(CCN(CC4CC4)C2)COC3)cc1 (stereo not drawn) | B: 2.592%
- COCC1N(C(=O)N2CCOCC2)[C@H]2CC[C@]1(O)CC2 (stereo partly drawn) | A: 22.25%; C: 0.6135%; E: 16.49%; F: 1.156%
- O=C(O)C(F)(F)F.[H][C@@]12CCN(C(=O)c3ccsc3)[C@]1([H])CCC(=O)N2Cc1ccncc1 | B: 10.54%
- O=C(NCC(O)c1ccc(Cl)s1)c1ccoc1 (stereo not drawn) | B: 28.27%; C: 1.474%; D: 4.854%; E: 16.67%; F: 9.412%
- CC(C)N1CCc2ncn(C)c2C1C(=O)N1CCOCC1.O=C(O)C(F)(F)F (stereo not drawn) | B: 2.841%
- Cn1ccnc1CN(CCO)C(=O)c1cnc2ccccc2c1 | A: -24.54%; B: 1.441%; C: 4.733%; D: 0.1006%; E: 11.83%; F: 5.759%
- Cc1[nH]c(C2(N)CCCCC2)nc(=O)c1C.Cl | B: -0.6048%
- O=C(O)C(F)(F)F.O=C(O)C(F)(F)F.[H][C@@]12COC[C@]1(CNS(=O)(=O)CC)CN(Cc1ccncc1)C2 | B: -0.4199%
- [H][C@]12CCN(C(=O)COC)CC[C@@]1([H])S(=O)(=O)N(Cc1ccccc1)C2 | B: 0.5634%
- O=C(NCC(O)c1ccccc1)Nc1cccs1 (stereo not drawn) | A: -16.83%; B: -26.28%; C: 4.373%; D: 0.2859%; E: 8.333%; F: 2.083%
- Cc1nc(N2CCN(S(C)(=O)=O)CC2)cc(-n2cnc(C)c2C)n1 | A: -3.715%; B: 3.913%; C: 0.3636%; D: 0.2694%; E: 4.839%; F: 3.061%
- CC[C@H](C)[C@H](N)C(=O)Nc1nc(-c2cnc(N(C)CCO)nc2)cs1 | A: 27.23%; B: -24.67%; C: 2.53%; E: 31.43%; F: 3.39%

Repeated from the top, 2 entries:

SMILES	A	B	C	D	E	F
Cc1ccc(-n2nnc(CC(=O)N3CCN(C(C)C)CC3)c2C)cc1	-28.95%	12.25%	5.33%	-1.614%	17.65%	-0.4484%
[H][C@]12CCCC(=O)N[C@@]1(C)CCCCN2C(=O)c1ccccn1	-	5.495%	-	-	-	-